# Patent US12377164B2 (ASTRAZENECA AB, priority 2018, dated 2025)
# Key:
# [1] = Competition experiment: reaction with Boc-Cys-OMe and Boc-Lys-OMe at alkaline pH; details: pH 8, 37° C., 2 h
# [2] = general procedure: solution-phase peptide synthesis; HBTU/DIPEA, HBTU/HOBt/DIPEA; HOBt/pyridine for PNP carbonates; details: conjugation step
Compound,formation of the lysine conjugate ([1]; competition with cysteine),conversion to the cysteine conjugate ([1]; competition with lysine),conjugation yield [2]
"C=Cc1ccnc(N)n1 [compound 1, 2-amino-4-vinyl-pyrimidine]",No evidence of the lysine conjugate 5 was observed,full conversion to the cysteine conjugate 3,
Alloc-Val-Ala-PABC-MMAE,,,88%
